Measured values reported in the supplement of paper PMC12067093, “Discovery and optimisation of a covalent ligand for TRIM25 and its application to targeted protein ubiquitination” (Chemical Science, 2025).
The list shows a part of the results.

Chains of the proteins cited; added tags and fusions are not shown. Lines headed by an entry give the natural chain unless they say otherwise; changes in a name come on top.
UniProt O43865, whole entry, looked up: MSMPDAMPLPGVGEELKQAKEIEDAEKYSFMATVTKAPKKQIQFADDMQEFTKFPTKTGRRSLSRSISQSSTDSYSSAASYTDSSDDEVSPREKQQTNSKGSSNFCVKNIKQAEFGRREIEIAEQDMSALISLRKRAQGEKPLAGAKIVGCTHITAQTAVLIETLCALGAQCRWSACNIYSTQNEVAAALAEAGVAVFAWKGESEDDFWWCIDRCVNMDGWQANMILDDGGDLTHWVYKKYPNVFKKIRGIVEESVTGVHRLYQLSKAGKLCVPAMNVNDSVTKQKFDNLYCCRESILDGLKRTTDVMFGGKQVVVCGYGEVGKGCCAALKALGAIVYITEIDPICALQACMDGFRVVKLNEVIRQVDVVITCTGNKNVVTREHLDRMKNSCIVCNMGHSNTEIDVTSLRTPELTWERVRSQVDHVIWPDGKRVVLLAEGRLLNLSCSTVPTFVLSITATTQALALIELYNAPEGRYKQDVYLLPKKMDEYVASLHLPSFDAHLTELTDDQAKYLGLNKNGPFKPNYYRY
UniProt Q9UJX4, whole entry, looked up: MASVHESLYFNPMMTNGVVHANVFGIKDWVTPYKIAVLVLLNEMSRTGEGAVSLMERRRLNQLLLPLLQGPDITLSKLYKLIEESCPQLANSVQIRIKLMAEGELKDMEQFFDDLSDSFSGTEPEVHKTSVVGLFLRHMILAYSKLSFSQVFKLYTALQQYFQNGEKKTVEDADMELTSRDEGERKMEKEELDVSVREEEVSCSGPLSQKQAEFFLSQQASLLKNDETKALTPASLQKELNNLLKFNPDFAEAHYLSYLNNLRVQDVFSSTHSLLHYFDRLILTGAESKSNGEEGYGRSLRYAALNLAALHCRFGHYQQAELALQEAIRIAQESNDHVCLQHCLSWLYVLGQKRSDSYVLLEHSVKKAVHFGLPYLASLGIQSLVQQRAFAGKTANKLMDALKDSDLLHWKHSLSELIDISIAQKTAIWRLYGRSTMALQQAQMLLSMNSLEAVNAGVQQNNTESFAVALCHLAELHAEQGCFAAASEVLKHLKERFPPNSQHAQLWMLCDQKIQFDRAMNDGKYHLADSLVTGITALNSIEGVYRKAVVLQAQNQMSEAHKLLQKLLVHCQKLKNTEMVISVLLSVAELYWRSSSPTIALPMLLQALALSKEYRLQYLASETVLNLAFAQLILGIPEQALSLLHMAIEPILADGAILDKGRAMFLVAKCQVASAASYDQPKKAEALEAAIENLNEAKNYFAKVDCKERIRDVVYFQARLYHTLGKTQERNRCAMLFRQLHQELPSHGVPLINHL
UniProt P54886: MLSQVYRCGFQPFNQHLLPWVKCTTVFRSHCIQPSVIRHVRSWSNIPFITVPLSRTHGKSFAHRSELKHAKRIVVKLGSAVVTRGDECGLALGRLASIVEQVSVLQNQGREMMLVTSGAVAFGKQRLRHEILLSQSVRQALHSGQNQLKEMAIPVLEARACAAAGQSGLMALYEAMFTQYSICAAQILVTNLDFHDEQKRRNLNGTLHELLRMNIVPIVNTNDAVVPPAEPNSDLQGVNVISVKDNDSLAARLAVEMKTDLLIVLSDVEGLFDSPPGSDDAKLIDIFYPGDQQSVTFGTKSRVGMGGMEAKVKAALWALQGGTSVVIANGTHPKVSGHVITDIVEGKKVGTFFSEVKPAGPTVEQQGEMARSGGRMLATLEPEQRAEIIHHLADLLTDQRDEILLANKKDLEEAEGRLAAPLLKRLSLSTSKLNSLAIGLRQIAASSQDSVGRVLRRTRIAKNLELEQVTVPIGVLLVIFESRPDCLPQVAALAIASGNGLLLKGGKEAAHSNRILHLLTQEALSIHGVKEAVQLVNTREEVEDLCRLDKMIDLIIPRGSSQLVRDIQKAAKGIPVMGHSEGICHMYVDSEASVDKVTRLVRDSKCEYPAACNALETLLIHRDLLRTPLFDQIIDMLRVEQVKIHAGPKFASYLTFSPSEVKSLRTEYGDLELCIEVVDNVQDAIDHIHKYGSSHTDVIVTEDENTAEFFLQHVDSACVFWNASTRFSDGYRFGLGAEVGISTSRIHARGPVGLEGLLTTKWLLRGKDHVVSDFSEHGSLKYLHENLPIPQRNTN
UniProt P35573: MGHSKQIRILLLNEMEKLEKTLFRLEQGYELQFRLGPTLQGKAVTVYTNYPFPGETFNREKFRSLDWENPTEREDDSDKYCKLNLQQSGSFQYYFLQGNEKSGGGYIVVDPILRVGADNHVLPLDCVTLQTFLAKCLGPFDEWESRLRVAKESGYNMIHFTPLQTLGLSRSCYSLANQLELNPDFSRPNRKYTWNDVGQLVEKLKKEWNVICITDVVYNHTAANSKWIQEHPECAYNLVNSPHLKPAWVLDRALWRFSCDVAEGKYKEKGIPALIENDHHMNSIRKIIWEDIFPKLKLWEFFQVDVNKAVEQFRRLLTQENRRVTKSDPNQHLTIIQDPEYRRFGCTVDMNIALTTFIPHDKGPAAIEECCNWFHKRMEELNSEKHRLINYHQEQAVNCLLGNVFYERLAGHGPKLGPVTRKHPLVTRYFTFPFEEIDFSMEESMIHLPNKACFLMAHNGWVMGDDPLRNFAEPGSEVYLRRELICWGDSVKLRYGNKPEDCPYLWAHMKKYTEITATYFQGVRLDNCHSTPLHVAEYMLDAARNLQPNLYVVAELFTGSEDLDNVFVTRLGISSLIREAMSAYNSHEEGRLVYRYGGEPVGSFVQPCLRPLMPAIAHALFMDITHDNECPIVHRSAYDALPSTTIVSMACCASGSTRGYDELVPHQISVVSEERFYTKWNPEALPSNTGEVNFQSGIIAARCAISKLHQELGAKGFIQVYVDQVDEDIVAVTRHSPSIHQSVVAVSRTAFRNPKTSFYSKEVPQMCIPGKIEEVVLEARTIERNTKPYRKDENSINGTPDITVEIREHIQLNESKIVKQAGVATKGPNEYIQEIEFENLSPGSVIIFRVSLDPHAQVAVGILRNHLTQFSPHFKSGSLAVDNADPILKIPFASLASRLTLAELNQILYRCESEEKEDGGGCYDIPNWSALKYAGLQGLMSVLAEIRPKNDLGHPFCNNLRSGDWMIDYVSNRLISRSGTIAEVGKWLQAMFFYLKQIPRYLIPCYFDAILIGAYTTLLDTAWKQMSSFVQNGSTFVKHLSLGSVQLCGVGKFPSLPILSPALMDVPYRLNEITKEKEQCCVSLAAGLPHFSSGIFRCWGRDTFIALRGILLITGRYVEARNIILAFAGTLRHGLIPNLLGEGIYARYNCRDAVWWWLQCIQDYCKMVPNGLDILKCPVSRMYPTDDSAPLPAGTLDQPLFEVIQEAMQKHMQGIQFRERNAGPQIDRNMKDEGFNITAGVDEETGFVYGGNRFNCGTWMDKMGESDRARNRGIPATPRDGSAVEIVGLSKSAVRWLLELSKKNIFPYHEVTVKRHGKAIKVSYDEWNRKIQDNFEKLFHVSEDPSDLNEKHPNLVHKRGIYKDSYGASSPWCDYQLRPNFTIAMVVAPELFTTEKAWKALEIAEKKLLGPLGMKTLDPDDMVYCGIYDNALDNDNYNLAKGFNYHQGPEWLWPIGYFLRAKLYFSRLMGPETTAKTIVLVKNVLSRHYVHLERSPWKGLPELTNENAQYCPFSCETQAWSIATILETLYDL
UniProt P04075: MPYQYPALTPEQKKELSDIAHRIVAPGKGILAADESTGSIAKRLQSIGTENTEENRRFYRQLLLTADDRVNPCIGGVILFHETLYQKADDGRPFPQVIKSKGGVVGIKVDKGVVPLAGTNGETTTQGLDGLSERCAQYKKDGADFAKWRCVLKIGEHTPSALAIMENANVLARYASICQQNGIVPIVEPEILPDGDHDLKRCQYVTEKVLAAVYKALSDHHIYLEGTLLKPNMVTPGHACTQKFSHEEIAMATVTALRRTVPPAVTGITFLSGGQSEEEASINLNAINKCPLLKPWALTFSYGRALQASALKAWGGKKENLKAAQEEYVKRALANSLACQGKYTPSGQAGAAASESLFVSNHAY
UniProt Q9UM13, whole entry, looked up: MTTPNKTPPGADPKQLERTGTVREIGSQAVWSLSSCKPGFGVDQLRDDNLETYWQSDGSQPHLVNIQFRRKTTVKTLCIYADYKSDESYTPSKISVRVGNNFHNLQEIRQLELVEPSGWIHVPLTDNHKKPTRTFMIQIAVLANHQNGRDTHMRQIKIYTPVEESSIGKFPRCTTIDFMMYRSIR
UniProt Q9NXW9: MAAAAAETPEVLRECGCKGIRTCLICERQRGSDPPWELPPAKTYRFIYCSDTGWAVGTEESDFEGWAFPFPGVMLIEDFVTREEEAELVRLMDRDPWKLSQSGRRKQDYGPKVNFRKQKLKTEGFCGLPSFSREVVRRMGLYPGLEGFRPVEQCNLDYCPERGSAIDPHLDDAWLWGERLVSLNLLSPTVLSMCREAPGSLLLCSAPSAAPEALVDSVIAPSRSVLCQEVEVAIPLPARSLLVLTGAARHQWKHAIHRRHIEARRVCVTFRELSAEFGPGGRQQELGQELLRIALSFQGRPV
UniProt Q9UHK6: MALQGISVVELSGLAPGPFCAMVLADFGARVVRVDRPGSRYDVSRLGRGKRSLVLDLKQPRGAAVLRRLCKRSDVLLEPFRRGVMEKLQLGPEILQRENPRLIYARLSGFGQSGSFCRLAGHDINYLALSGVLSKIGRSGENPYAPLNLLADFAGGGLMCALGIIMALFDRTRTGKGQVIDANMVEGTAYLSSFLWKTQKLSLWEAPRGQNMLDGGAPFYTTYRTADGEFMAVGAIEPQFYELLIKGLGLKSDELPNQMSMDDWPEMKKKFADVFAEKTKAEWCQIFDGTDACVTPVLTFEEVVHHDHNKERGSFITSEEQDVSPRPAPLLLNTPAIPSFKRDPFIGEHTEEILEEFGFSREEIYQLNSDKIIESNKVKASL
UniProt Q9NUQ2: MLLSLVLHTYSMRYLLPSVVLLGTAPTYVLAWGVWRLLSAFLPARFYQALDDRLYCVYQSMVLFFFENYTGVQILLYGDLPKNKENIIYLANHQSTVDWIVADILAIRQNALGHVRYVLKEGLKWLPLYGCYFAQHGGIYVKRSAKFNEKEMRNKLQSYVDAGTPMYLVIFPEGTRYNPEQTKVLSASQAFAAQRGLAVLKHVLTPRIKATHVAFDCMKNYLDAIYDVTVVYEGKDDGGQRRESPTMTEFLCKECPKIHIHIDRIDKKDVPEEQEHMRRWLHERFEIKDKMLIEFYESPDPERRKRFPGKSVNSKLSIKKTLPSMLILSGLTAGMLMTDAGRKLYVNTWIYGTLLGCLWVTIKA
UniProt P49189: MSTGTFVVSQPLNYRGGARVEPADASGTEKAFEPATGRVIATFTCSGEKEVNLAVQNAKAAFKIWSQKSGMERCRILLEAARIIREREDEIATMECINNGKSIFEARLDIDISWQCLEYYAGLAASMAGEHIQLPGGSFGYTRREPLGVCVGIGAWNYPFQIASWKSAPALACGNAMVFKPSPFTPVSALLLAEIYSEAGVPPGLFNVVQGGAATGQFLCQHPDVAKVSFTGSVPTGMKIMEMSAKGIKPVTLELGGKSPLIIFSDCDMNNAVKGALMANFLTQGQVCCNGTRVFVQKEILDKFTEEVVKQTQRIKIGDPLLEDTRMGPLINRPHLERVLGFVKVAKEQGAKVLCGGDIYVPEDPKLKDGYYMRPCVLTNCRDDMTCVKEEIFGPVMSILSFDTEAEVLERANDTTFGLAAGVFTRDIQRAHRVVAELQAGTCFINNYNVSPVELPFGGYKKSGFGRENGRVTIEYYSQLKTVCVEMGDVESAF
UniProt O43823: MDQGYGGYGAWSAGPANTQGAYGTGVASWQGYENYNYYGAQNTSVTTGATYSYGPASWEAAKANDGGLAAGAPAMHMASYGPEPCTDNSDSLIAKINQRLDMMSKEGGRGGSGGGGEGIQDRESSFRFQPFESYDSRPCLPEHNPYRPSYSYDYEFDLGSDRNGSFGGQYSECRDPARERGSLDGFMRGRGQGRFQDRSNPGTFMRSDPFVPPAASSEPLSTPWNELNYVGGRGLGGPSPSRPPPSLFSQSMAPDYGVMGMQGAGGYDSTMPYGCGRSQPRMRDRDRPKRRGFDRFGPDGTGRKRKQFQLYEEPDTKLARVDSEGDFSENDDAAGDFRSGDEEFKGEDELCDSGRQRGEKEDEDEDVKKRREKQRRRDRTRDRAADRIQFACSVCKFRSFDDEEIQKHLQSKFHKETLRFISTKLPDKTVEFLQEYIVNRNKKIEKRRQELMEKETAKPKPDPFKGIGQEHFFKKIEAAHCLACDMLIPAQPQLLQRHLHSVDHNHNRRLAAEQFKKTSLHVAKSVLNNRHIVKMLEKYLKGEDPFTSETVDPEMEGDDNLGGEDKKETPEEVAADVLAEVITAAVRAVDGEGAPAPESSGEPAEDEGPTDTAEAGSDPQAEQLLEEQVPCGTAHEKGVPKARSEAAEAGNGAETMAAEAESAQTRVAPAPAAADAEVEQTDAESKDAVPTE

compound: CC1Cc2ccccc2N1C(=O)C1CCCN(C1)C(=O)CCl (mixture of isomers) [TRIM25 ligand 11 (diastereomer mixture)]; test: probe-labelled cysteine peptide fold change vs DMSO (competition) (log2 fold change); higher = less target engagement (more negative = stronger competition); settings: 50 µM; THP-1; incubation time: 4 h
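Further: competitive chemoproteomic profiling in live THP-1 cells with an iodoacetamide desthiobiotin (IA-DTB) probe, comparing probe-labelled peptide intensities in compound-treated cells against DMSO-treated controls.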

| Target | probe-labelled cysteine peptide fold change |
| --- | --- |
| AHCYL1_O43865_392+395_NSCIVCNMGHSNTEIDVTSLR (UniProt O43865) | -0.176 |
| ANAPC5_Q9UJX4_203_EEEVSCSGPLSQK (UniProt Q9UJX4) | -0.117 |
| ALDH18A1_P54886_674_TEYGDLELCIEVVDNVQDAIDHIHK (UniProt P54886) | 0.0867 |
| AKR7A2_O43488_132_LQCPQVDLFYLHAPDHGTPVEETLHACQR (UniProt O43488) | 0.339 |
| AKR1B1_P15121_81_LWCTYHEK (UniProt P15121) | 0.0203 |
| AGL_P35573_767_EVPQMCIPGKIEEVVLEAR (UniProt P35573) | -0.231 |
| AGL_P35573_767_EVPQMCIPGK (UniProt P35573) | -0.0571 |
| ALDOA_P04075_178_YASICQQNGIVPIVEPEILPDGDHDLK (UniProt P04075) | 0.209 |
| ANAPC10_Q9UM13_173_CTTIDFMMYR (UniProt Q9UM13) | -0.0614 |
| AIP_O00170_121_HCCGVAQMR (UniProt O00170) | -0.25 |
| ALKBH4_Q9NXW9_227_SVLCQEVEVAIPLPAR (UniProt Q9NXW9) | 0.0301 |
| ALDOA_P04075_240_PNMVTPGHACTQK (UniProt P04075) | 0.117 |
| AMACR_Q9UHK6_117_LSGFGQSGSFCR (UniProt Q9UHK6) | -0.0201 |
| AGPAT5_Q9NUQ2_217_ATHVAFDCMK (UniProt Q9NUQ2) | -0.0118 |
| ALDH9A1_P49189_289_GALMANFLTQGQVCCNGTR (UniProt P49189) | -0.039 |
| AKAP8_O43823_395_IQFACSVCK (UniProt O43823) | 0.0541 |
